Reference: article PMC4624675
Results are given in words; binding and its absence hold for the method and conditions named. In cells and extracts the contact can be indirect. Some entries that bind do so weakly or less than the wild type. For part of these data: Sequences can lack the tags named with a protein.

Chains of the proteins cited; added tags and fusions are not shown. Lines headed by an entry give the natural chain unless they say otherwise; changes in a name come on top.
UniProt Q2YD98: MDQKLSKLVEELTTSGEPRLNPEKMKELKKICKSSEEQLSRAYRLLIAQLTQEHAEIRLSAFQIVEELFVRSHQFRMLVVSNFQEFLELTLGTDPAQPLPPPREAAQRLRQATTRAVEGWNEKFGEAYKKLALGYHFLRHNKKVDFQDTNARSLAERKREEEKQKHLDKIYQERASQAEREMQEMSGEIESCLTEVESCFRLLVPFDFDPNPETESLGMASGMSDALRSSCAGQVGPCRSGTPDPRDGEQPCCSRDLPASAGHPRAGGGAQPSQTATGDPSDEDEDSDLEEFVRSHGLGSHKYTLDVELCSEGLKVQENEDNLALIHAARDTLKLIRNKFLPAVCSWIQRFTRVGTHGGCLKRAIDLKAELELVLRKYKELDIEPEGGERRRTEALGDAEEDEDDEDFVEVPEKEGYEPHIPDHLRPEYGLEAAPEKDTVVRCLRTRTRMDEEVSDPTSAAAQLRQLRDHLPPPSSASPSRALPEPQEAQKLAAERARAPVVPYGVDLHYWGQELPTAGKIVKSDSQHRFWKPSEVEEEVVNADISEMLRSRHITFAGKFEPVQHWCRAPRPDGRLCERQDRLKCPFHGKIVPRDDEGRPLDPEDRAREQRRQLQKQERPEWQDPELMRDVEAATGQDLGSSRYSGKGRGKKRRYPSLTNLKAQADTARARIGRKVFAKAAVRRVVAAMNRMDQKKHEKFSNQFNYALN
UniProt P26358: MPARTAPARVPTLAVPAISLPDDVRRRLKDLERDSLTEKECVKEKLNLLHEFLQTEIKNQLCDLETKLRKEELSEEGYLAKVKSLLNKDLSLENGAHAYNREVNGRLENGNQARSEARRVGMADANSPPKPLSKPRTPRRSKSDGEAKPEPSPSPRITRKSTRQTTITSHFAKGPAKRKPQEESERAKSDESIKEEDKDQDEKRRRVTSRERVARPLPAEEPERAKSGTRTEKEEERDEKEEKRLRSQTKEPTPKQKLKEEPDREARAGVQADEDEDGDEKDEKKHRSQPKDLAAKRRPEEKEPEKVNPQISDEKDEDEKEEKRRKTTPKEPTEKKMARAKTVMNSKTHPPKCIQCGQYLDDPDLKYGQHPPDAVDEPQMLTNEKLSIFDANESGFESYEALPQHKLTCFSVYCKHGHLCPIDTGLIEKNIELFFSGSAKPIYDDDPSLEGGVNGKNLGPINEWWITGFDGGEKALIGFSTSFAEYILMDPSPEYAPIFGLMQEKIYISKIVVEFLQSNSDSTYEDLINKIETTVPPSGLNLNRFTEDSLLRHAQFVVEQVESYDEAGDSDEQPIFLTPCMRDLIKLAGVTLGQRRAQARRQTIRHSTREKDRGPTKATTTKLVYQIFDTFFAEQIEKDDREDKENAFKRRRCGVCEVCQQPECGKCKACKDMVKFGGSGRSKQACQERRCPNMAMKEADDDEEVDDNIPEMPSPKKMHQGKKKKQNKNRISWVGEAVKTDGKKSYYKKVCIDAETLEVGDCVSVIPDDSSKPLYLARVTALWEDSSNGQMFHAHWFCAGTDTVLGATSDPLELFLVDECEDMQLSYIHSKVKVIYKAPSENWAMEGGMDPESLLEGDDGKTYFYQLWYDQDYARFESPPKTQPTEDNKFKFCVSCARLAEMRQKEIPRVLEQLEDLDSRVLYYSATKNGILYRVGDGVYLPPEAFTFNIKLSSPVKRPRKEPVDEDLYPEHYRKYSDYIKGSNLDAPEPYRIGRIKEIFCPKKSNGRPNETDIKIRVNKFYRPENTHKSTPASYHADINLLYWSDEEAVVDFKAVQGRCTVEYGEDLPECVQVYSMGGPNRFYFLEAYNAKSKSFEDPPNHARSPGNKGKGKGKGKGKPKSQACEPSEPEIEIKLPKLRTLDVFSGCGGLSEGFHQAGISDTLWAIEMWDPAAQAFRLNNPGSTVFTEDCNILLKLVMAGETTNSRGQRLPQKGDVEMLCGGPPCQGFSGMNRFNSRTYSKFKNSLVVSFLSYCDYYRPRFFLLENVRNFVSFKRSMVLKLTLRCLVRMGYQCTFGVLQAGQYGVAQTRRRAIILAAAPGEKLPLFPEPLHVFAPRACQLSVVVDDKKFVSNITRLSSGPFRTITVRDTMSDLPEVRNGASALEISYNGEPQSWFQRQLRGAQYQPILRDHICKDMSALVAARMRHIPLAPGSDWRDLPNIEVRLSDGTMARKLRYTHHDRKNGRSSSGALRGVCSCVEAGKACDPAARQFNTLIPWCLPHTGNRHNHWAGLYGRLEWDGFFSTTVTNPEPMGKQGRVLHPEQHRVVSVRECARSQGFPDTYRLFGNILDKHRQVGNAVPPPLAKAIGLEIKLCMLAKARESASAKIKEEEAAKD
UniProt Q93009: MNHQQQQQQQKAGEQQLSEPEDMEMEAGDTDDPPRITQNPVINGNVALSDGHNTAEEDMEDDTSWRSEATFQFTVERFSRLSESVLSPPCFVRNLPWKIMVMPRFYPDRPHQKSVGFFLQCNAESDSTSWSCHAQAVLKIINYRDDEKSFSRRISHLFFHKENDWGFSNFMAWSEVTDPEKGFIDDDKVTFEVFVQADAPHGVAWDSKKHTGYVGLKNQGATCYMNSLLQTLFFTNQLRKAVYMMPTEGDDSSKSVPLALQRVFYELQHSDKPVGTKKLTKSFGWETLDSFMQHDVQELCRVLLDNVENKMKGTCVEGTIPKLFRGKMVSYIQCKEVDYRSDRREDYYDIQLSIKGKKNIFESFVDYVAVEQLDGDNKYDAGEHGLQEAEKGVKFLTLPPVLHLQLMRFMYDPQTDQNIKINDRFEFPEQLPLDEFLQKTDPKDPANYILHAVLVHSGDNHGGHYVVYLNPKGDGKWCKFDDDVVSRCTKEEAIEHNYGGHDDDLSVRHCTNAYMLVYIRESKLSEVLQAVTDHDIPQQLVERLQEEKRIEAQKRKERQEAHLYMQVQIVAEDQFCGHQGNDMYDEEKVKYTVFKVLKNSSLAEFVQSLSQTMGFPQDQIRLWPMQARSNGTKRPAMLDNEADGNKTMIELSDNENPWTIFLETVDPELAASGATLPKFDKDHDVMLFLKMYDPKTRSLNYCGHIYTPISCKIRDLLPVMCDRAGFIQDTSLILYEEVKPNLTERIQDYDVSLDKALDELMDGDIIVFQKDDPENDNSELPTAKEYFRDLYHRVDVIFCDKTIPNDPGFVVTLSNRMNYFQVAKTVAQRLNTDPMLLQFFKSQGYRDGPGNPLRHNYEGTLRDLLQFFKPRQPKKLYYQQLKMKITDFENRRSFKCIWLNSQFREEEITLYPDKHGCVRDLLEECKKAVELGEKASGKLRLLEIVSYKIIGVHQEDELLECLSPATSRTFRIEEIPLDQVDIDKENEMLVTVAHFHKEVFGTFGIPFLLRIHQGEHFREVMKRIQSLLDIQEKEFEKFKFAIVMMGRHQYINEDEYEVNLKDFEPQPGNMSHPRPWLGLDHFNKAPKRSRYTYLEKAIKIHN

How the values were obtained:
Assay in all cases: co-IP; HEK293T cells transiently co-transfected with FLAG-tagged proteins and GFP-tagged USP7 (wild-type and mutants), immunoprecipitation, immunoblotting; which tag was precipitated is not told
FLAG-tagged UVSSA = FLAG-tagged UVSSA (UniProt Q2YD98)
FLAG-tagged MCMBP = target: T1, FLAG-tagged MCMBP (UniProt Q9BTE3)
T1 sequence: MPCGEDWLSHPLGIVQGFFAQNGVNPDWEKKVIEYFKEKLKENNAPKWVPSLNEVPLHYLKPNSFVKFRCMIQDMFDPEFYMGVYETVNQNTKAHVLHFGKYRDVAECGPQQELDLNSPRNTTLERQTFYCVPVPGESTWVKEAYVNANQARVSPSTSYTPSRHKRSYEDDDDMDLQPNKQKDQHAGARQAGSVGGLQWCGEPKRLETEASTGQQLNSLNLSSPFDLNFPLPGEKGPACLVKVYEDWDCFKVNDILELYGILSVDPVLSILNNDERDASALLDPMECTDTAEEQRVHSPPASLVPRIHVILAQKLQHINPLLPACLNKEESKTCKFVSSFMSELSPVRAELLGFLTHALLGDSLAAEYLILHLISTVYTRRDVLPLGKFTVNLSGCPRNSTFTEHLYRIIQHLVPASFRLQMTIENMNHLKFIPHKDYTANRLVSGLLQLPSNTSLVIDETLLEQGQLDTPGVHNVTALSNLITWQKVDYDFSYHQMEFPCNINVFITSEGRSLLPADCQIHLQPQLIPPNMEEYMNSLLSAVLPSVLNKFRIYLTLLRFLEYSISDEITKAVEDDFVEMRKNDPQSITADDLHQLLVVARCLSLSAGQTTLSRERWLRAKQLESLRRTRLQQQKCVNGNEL

FLAG-tagged MCM4 = target: T2, FLAG-tagged MCM4 (UniProt P33991)
T2 sequence: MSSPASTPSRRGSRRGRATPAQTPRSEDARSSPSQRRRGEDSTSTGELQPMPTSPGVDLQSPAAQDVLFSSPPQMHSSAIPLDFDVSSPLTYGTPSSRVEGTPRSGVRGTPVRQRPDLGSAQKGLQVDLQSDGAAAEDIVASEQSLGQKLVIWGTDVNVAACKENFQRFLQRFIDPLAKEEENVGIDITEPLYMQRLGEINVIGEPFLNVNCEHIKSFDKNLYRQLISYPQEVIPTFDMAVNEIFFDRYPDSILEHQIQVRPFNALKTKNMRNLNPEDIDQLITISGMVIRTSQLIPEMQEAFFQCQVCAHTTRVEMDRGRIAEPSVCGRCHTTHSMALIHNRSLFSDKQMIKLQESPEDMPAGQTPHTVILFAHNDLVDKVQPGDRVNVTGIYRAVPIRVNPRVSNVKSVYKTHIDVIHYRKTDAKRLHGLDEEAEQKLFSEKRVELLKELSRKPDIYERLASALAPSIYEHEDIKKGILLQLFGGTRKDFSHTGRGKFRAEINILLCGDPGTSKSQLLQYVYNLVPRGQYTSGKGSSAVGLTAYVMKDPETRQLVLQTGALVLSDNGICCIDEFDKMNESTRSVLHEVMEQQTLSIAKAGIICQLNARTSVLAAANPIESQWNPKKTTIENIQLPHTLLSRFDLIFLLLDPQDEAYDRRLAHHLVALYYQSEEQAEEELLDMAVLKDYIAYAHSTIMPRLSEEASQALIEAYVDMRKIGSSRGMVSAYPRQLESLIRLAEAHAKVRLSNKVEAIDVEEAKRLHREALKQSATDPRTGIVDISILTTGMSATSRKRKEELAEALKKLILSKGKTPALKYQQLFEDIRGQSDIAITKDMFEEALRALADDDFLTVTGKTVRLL

FLAG-tagged WDR21a = target: T3, FLAG-tagged WDR21a (UniProt Q8WV16)
T3 sequence: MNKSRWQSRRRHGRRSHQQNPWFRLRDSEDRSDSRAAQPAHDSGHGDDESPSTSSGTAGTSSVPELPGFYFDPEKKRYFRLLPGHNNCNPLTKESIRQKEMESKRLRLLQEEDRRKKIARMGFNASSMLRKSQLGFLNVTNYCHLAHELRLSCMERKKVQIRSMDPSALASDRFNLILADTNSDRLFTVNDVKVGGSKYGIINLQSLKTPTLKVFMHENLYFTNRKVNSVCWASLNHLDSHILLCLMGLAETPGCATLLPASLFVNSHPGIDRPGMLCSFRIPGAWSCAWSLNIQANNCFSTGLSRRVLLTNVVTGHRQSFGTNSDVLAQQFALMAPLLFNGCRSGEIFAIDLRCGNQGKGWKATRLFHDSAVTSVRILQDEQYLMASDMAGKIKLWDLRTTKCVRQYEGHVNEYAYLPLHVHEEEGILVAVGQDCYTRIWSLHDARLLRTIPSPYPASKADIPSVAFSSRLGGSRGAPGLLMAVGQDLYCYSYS

FLAG-tagged DNMT1 = FLAG-tagged DNMT1 (UniProt P26358)

| Substance | binding (FLAG-tagged UVSSA) | binding (FLAG-tagged MCMBP) | binding (FLAG-tagged MCM4) | binding (FLAG-tagged WDR21a) | binding (FLAG-tagged DNMT1) |
| --- | --- | --- | --- | --- | --- |
| GFP-tagged full-length USP7 W165A (from UniProt Q93009 1-1102) (enzyme) | binds | binds | binds | binds |  |
| GFP-tagged full-length USP7, wild type (from UniProt Q93009 1-1102) (enzyme) | binds | binds | binds | binds | binds |
